# Library screen at single concentrations

T. brucei: 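Whole-parasite assay of Trypanosoma brucei over 72 hours; the read-out is not stated. Compounds at 30 µM. The record gives no direction; compounds that gave an IC50 in retests scored well above the rest, so higher reads as stronger inhibition. Values scatter widely below zero; nearly all retest evidence comes from the higher of the two concentrations used. About 64,000 compounds were tested under these conditions; 1.5% (about 940) showed 50% or more at least once.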
Toxoplasma: 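Assay of Toxoplasma gondii numbers, read through their beta-galactosidase reporter with a colour substrate. Tested at 10 µM. Higher reads as fewer parasites (inferred from which compounds were picked for retests). About 67,000 compounds were tested under these conditions; 0.38% (about 260) showed 50% or more at least once.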
Leishmania in macrophages: 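Cell assay of Leishmania donovani living inside macrophages; the read-out is not stated. Compounds at 30 µM. Direction is inferred from retests: higher values go with stronger inhibition. Size under these conditions: about 69,000 compounds, about 1,000 of them at 50% or above in at least one test.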

Each number is a percent effect as filed.
How 0% and 100% were set is not recorded. Most values in the screen are low, and negative values occur.
Compounds were drawn at random from those tested, without regard to their results.
Two or more numbers in one place are separate tests of the same structure; such repeats can differ widely.

{"compound": "[H][C@]12CNC[C@@]1(C(=O)NCCNc1ccncc1C)CN(C(C)=O)C2", "T. brucei": -8.051, "Toxoplasma": -2.846, "Leishmania in macrophages": 9.288}
{"compound": "O=C(NCCSCc1ccco1)c1ccc(N2CCOCC2)cc1", "T. brucei": 12.58, "Toxoplasma": 16.73, "Leishmania in macrophages": -4.352}
{"compound": "COc1ccc(CNc2ncnc3c2NC(=O)CN3)cc1", "T. brucei": -13.43, "Toxoplasma": -2.487, "Leishmania in macrophages": 7.354}
{"compound": "O=C1CN(C(=O)C2CN(c3ccc(F)cc3)CCO2)CCN1", "stereo": "stereo not shown", "T. brucei": -27.74, "Toxoplasma": -5.277, "Leishmania in macrophages": 32.05}
{"compound": "CC(c1ccon1)N(C)C(=O)C1CCN(CC(N)=O)CC1", "stereo": "stereo not shown", "T. brucei": 11.75, "Toxoplasma": -5.625, "Leishmania in macrophages": 7.799}
{"compound": "Cc1cc(CN(C)C(=O)NCc2ccnc(SC(C)(C)C)c2)no1", "T. brucei": -17.26, "Toxoplasma": -2.774, "Leishmania in macrophages": 20.96}
{"compound": "Cn1c(=O)ccn(CC(=O)Nc2cnccc2O)c1=O", "T. brucei": 3.713, "Toxoplasma": -1.979, "Leishmania in macrophages": 15.04}
{"compound": "CCn1c(C)nnc1SCCNc1cc(COC)ncn1", "T. brucei": -5.4, "Toxoplasma": 0.8716, "Leishmania in macrophages": 9.208}
{"compound": "N#CCCN1CCC(=Cc2ccccc2)CC1", "T. brucei": -5.823, "Toxoplasma": -0.1588, "Leishmania in macrophages": 13.03}
{"compound": "Cc1nnsc1C(=O)N1CCCCC1c1cc2nc(C)c(C)c(O)n2n1", "stereo": "stereo not shown", "Toxoplasma": 1.744, "Leishmania in macrophages": 19.43}
{"compound": "Cc1nn(C)c(C)c1-c1cncc(C2CCN(S(C)(=O)=O)CC2)n1", "T. brucei": -3.417, "Toxoplasma": -2.496, "Leishmania in macrophages": 6.26}
{"compound": "CCN(CC)C(=O)c1ccc(COc2ccccc2C#N)o1", "T. brucei": -18.17, "Toxoplasma": 2.308, "Leishmania in macrophages": 18.77}
{"compound": "Cc1nc(CN(C)C2CCN(Cc3ccc4c(c3)OCCO4)C2)no1", "stereo": "stereo not shown", "T. brucei": -5.625, "Toxoplasma": 1.359, "Leishmania in macrophages": 14.51}
{"compound": "O=C1COC2(CCN(c3ncccn3)CC2)CN1c1ccsc1", "T. brucei": -33.62, "Toxoplasma": 0.5977, "Leishmania in macrophages": 0.06535}
{"compound": "O=C(NCc1cc(C2CC2)n(C2CCCC2)n1)C1CC1", "T. brucei": -22.77, "Toxoplasma": -6.387, "Leishmania in macrophages": 6.411}
{"compound": "c1ccc2sc(CN3CCCC3c3noc(C4CC4)n3)nc2c1", "stereo": "stereo not shown", "T. brucei": 35.38, "Toxoplasma": 4.954, "Leishmania in macrophages": 21.43}
{"compound": "CC1Cc2ccccc2N1C(=O)Cn1nc(-c2cccs2)ccc1=O", "stereo": "stereo not shown", "Toxoplasma": 2.067, "Leishmania in macrophages": 31.43}
{"compound": "Cc1cn2nc(N3CCCC3C(=O)N3CCN(C)CC3)sc2n1", "stereo": "stereo not shown", "T. brucei": -62.47, "Toxoplasma": 4.854, "Leishmania in macrophages": 13.25}
{"compound": "O=C(O)C(F)(F)F.[H][C@@]12CCN(c3ncc(F)cn3)[C@]1([H])CC[C@H](C(=O)NCCOC)O2", "T. brucei": 4.234, "Toxoplasma": -3.202, "Leishmania in macrophages": 42.48}
{"compound": "Cn1cc(C(=O)N2CCCC2c2[nH]ncc2C(N)=O)cn1", "stereo": "stereo not shown", "T. brucei": -35.38, "Toxoplasma": 7.769, "Leishmania in macrophages": "1.565 & 1.721"}
{"compound": "CCCN(CCO)C(=O)C1CCC(=O)N(Cc2ccc(Cl)cc2)C1", "stereo": "stereo not shown", "T. brucei": -15.2, "Toxoplasma": -29.4, "Leishmania in macrophages": 3.595}
{"compound": "O=C(O)C(F)(F)F.[H][C@@]12CN(C(=O)NCc3ccccc3)CCC[C@]1(C(=O)O)CN(C(C)C)C2", "T. brucei": -29.52, "Toxoplasma": 21.22, "Leishmania in macrophages": 1.263}
{"compound": "Cc1ncc2c(n1)CCCC2NC(=O)c1ccncc1", "stereo": "stereo not shown", "T. brucei": -24.72, "Toxoplasma": 5.178, "Leishmania in macrophages": 4.13}
{"compound": "CCC(CC)C(=O)N1CCN(Cc2cc(-c3ccncc3)nn2C)CC1", "T. brucei": 6.794, "Toxoplasma": 3.575, "Leishmania in macrophages": -4.345}
{"compound": "CC(=O)N(CCC(=O)NC1(C#N)CCC1)Cc1ccccc1", "T. brucei": -14.63, "Leishmania in macrophages": -22.1}
{"compound": "O=C(O)[C@@H]1CN(C(=O)c2ccc3[nH]nnc3c2)C[C@H]1c1cccc(F)c1", "T. brucei": 3.088, "Toxoplasma": 14.9, "Leishmania in macrophages": 20.07}

Some entries from above, unchanged:

With Cc1cn2nc(N3CCCC3C(=O)N3CCN(C)CC3)sc2n1 (stereo not shown) the screen gave T. brucei: -62.47%; Toxoplasma: 4.854%; Leishmania in macrophages: 13.25%.
With CC(=O)N(CCC(=O)NC1(C#N)CCC1)Cc1ccccc1 the screen gave T. brucei: -14.63%; Leishmania in macrophages: -22.1%.
With c1ccc2sc(CN3CCCC3c3noc(C4CC4)n3)nc2c1 (stereo not shown) the screen gave T. brucei: 35.38%; Toxoplasma: 4.954%; Leishmania in macrophages: 21.43%.

From ChEMBL document CHEMBL3988442, “University of Dundee, Small-Polar-MMV Screening Library” (2021).